# The list shows a part of the results.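 Rule for the calls: active = mitochondrial OCR inhibition above 30% at 1 uM; inactive = 30% or less.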 Single values are uncertain, as repeats are few or missing.
# Test system: Toxoplasma gondii RH tachyzoites
# Experiment: inhibition of mitochondrial O2 consumption rate (% inhibition (relative to pre-injection OCR and atovaquone/antimycin A control)); higher = stronger ETC inhibition
# Settings: 1 µM; injection port (sequential injection order): A
row,Structure (SMILES),inhibition of mitochondrial O2 consumption rate
1,Cc1cccc(C(=O)Nc2ccnc(N(C)C3CCN(CC(C)C)CC3)c2)c1,inactive: -10.4
2,CC(C)(C)C(O)C(Oc1ccc(-c2ccccc2)cc1)n1cncn1 (centres undefined),inactive: -4.6
3,Cc1nn(Cc2ccccc2)c(Cl)c1C(=O)NC1CCCCCC1,inactive: -0.578
4,Nc1c2c(nc3sc4c(c13)CCCC4)CCCC2,inactive: -6.2
5,CCc1nn(C)c(C(=O)NCc2ccc(Oc3ccc(C)cc3)cc2)c1Cl,inactive: -4.92
6,CC1COC(Cn2cncn2)(c2ccc(Oc3ccc(Cl)cc3)cc2Cl)O1 (centres undefined),inactive: -3.55

# As a working copy, part of the list above.
row,Structure (SMILES),inhibition of mitochondrial O2 consumption rate
1,Cc1cccc(C(=O)Nc2ccnc(N(C)C3CCN(CC(C)C)CC3)c2)c1,inactive: -10.4
2,CC(C)(C)C(O)C(Oc1ccc(-c2ccccc2)cc1)n1cncn1 (centres undefined),inactive: -4.6

# Same assay, conditions: 1 µM; injection port (sequential injection order): B
row,Structure (SMILES),inhibition of mitochondrial O2 consumption rate
1,Cc1cc(C2=NOC(c3cc(Cl)c(F)c(Cl)c3)(C(F)(F)F)C2)ccc1C(=O)NCc1ccc2c(c1)C(C)(C)OB2O (centres undefined),inactive: 3.37
2,CO/N=C(\C(=O)OC)c1ccccc1CO/N=C(\C)c1cccc(C(F)(F)F)c1,active: 68.3
3,CC1(C)OB(O)c2ccc(C3=NOC(c4cc(Cl)c(F)c(Cl)c4)(C(F)(F)F)C3)cc21 (centres undefined),inactive: -7.29
4,O=C1O[C@@H](CO)CN1c1cc(F)c(C2=CCN(Cc3ccccc3)CC2)c(F)c1,inactive: -9.8
5,CO/C=C(/C(=O)OC)c1ccccc1Oc1cc(Oc2ccccc2C#N)ncn1,active: 31.9

# Same assay, conditions: 1 µM; injection port (sequential injection order): C
row,Structure (SMILES),inhibition of mitochondrial O2 consumption rate
1,O=C1O[C@@H](COc2ccon2)CN1c1cc(F)c(C2=CCN(Cc3ccccc3)CC2)c(F)c1,inactive: -10.6
2,CO[C@@H]1CN(c2ccc(C#CC3(O)CN4CCC3CC4)c(Cc3ccccc3)n2)C[C@H]1O (some centres undefined),inactive: -42.2
3,Cc1nn(C)c(C)c1NS(=O)(=O)c1c(Cl)cc(-c2ccnc(N3CCNCC3)c2)cc1Cl,inactive: -13.2

# From the supplement of paper PMC10403144
